For at least one compound, name, drawing or mass did not settle the structure.
Tested on: models of diabetes without hyperinsulinism
Assay: Antidiabetic activity in models of diabetes without hyperinsulinism
Assay type: in vivo

With `Cc1c(C)c2c(c(C)c1O)CCC(C)(COc1ccc(CC3SC(=O)NC3=O)cc1)O2` (stereo not shown) [troglitazone] the antidiabetic activity was “little active”.

From patent US6437143B1, “Thiazolidone-2 derivatives, 4-diketone substituted, method for obtaining them and pharmaceutical compositions containing same” (Merck Patent Gesellschaft mit beschrankter Haftung, priority 1996, dated 2002)
